Data from PubChem BioAssay AID493014 (National Center for Advancing Translational Sciences (NCATS), 2011).
The list shows a part of the results. Further columns of the screen follow, without active or inactive calls. The list favours compounds with an active or inconclusive main result. Words in brackets tell the shape of the fitted curve; partial curves, single points and poor fits give uncertain potencies.

Test: qHTS Assay to Find Inhibitors of Chronic Active B-Cell Receptor Signaling
Details: ABC-DLBCL IkBa-CBG/CBR reporter, luminescence ratio (green luciferase fused to IkBa over red control in TMD8 lymphoma cells), 4 h
How it was run: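 Concentration-response series (up to 46 uM) were applied to TMD8 dual-reporter cells for 4 h at 37C with doxycycline. Green/red ratio, after filter-overlap correction, defined %Activity; red signal alone was normalised to basal cells and zero luminescence.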

[1] = measured here: CBR red luminescence, cell number
[2] = measured here: IkBa-CBG green luminescence

Structure (SMILES)	AC50 [1]	AC50 [2]
Cc1ccc(NC(=O)c2cc(S(=O)(=O)NC3CCCCC3)ccc2F)cc1Cl	6.31 µM [falling, partial curve, poor fit]	
O=C1c2ccccc2NC(c2ccc(-c3cccc([N+](=O)[O-])c3)o2)N1O (configuration not stated)	8.2 µM [falling, partial curve]	
COC(=O)C1CCN(CC(=O)Nc2ccc3c(c2)OCCO3)CC1	29.1 µM [rising, single point]	
O=C(CSc1ncn(-c2ccccc2)n1)Nc1nc2ccccc2s1	0.13 µM [rising, full curve, poor fit]	
C[N+]12CCCCC1[C@@H](CO)CCC2 (some centres not stated)	0.1 µM [rising, full curve, poor fit]	
COc1ccc(CNc2nc3ccccc3s2)cc1OC	2.82 µM [rising, full curve, poor fit]	
CC(=O)Nc1cccc(/C(C)=N\NC(=O)c2ccc(Cn3nc([N+](=O)[O-])c(Cl)c3C)o2)c1	23.1 µM [falling, single point]	
O=C(CSc1cccc[n+]1[O-])Nc1cccc(Oc2ccccc2)c1	11.2 µM [falling, single point]	
O=C(Nc1cc(N2CCOCC2)ncn1)NC1(C(F)(F)F)Oc2ccc(Cl)cc2O1 (configuration not stated)	9.2 µM [falling, partial curve, poor fit]	
Cc1ccc(NC(=O)CSc2nc(=O)n(Cc3ccco3)c3c2CCC3)cc1F	15.8 µM [falling, single point]	
COc1cccc(Oc2ccc(C(F)(F)F)cc2NC(=O)CN2C(=O)NC3(CCCC3)C2=O)c1	4.11 µM [rising, single point]	
COc1cc([N+](=O)[O-])cc(/C=N/NC(=O)C(C)Nc2ccccc2C)c1O (configuration not stated)	16.4 µM [falling, single point]	18.4 µM [rising, partial curve, poor fit]
COc1ccc(CCNC(=O)CN2c3cccc4cccc(c34)S2(=O)=O)cc1OC	2.24 µM [rising, full curve, poor fit]	
Nc1c(C(=O)O)cnn1-c1ccccc1	0.1 µM [rising, full curve, poor fit]	
CC(C)(C)NC(=O)CN(C(=O)c1csnn1)c1ccccc1-c1ccccc1	35.5 µM [rising, partial curve, poor fit]	
Cc1nc(/N=C(\N)Nc2ccccc2)nc2ccccc12	0.0891 µM [falling, full curve, poor fit]	
CCc1nnc(NS(=O)(=O)c2ccc(N/C=C/C(=O)c3ccc(C)cc3)cc2)s1	13 µM [rising, partial curve, poor fit]	
COc1ccc(CS(=O)(=O)/C(Cl)=C(/Cl)C(=O)Nc2ccc(OC)nc2)cc1	1.03 µM [falling, full curve, poor fit]	0.82 µM [rising, full curve, poor fit]
C/C(CC(=O)NCCN1CCOCC1)=N\NC(=O)c1ccncc1	6.31 µM [falling, partial curve, poor fit]	
CC1C(=O)NN=C1C(=O)N/N=C\C(Br)=C\c1ccccc1 (configuration not stated)	0.631 µM [falling, full curve, poor fit]	
COc1ccc(NC(=O)CN2CCCCC2)cc1	1.3 µM [falling, full curve, poor fit]	1.16 µM [rising, full curve, poor fit]

Quoted at random: two records from the list, in no set order.
Structure (SMILES)	AC50 [1]	AC50 [2]
CC1C(=O)NN=C1C(=O)N/N=C\C(Br)=C\c1ccccc1 (configuration not stated)	0.631 µM [falling, full curve, poor fit]	
COc1ccc(CS(=O)(=O)/C(Cl)=C(/Cl)C(=O)Nc2ccc(OC)nc2)cc1	1.03 µM [falling, full curve, poor fit]	0.82 µM [rising, full curve, poor fit]

Further compounds follow:

Structure (SMILES)	AC50 [1]	AC50 [2]
C/C=C\C=C/C(=O)Nc1cccc(C2=NOC3(C2)C[C@@H](C(N)=O)N(C(=O)COc2ccc(Cl)cc2)C3)c1 (some centres not stated)	20 µM [falling, single point]	
CCOC(=O)CCCNC(=O)c1cncc(Br)c1	7.08 µM [falling, partial curve, poor fit]	
CCCCSc1nnc(-c2ccccc2NC(C)=O)c(=O)[nH]1	35.5 µM [falling, single point]	
O=C1C(Cl)=C(NCCN2CCOCC2)C(=O)c2ccccc21	35.5 µM [falling, single point]	
CCOC(=O)N/N=C(\CCC(=O)O)c1cccs1	35.5 µM [falling, single point]	
O=C(/C=C/c1cccc([N+](=O)[O-])c1)NCCSCc1c(Cl)cccc1Cl	2.31 µM [rising, partial curve]	
COc1ccc(Cn2c(C(C)C)nc3sc4ccccc4c(=O)c3c2=O)cc1	7.94 µM [rising, partial curve]	
Cc1cc(=O)oc2cc(OCC(=O)NC3CCCCC3)ccc12	1.41 µM [rising, full curve, poor fit]	
C/C(=N\NC(=O)c1ccc(Cl)cc1)c1ccccn1	35.5 µM [falling, single point]	12.6 µM [falling, partial curve, poor fit]
COc1ccc(N(C(=O)CCl)C(C(=O)NC2CCCCC2)c2cccnc2)cc1 (configuration not stated)	5.8 µM [falling, partial curve, poor fit]	
O=C(NC1=NCCS1)c1cccc(N2C(=O)c3ccccc3C2=O)c1	6.31 µM [rising, single point]	
CCc1ccc(CNCc2ccc(F)cc2)cc1	20.6 µM [rising, single point]	
CCC(C)Sc1cccc(-c2nc3ccccn3c2NCc2ccccc2)c1 (configuration not stated)	29.1 µM [falling, single point]	
CSc1ncccc1C(=O)OCC(=O)N(C)C1CCS(=O)(=O)C1 (configuration not stated)	32.6 µM [falling, single point]	
CN(C)S(=O)(=O)c1ccc(NC(=O)CN2CCCC2c2ccc3c(c2)OCCCO3)cc1 (configuration not stated)	2.06 µM [rising, full curve, poor fit]	
CC1CN(C(=O)CN2C(=O)NC3(CCCC3)C2=O)C(=Nc2cccc(S(=O)(=O)N(C)C)c2)S1 (configuration not stated)	29.1 µM [rising, single point]	
Cc1cccc(NNC(=S)Nc2c(C)cccc2C)c1	35.5 µM [falling, single point]	
CCOC(=O)C1=C(C)NC(C)=C(C(=O)OC)C1c1cccc([N+](=O)[O-])c1 (configuration not stated)	0.731 µM [rising, full curve, poor fit]	
Cc1nnc(SCCn2c(N3CCCCC3)nc3c2c(=O)[nH]c(=O)n3C)s1	29.1 µM [rising, single point]	
Nc1cc(OC(=O)c2c(F)cccc2Cl)nn1S(=O)(=O)c1ccccc1	11.2 µM [falling, partial curve, poor fit]	
Cc1ccc(NC(=S)NC2CCCC2)cc1C	23.1 µM [falling, single point]	

Structure (SMILES)	AC50 [1]	AC50 [2]
N=c1c(S(=O)(=O)c2ccccc2)cc2c(=O)n3ccccc3nc2n1C1CCCC1	1.26 µM [rising, full curve, poor fit]	
O=C(c1ccc(C(=O)N2CCCCCC2)cc1)N1CCCCCC1	0.0651 µM [falling, full curve, poor fit]	
O=C(CCCOc1ccc(Cl)cc1Cl)Nc1ccccn1	3.98 µM [rising, full curve, poor fit]	
CC(C)c1ccccc1NC(=O)COc1ccc(C(=O)NCCc2ccccc2)cc1	1.16 µM [rising, full curve]	
O=C(O)CCCN1C(=O)/C(=C\c2ccc(-c3nc4ccccc4s3)o2)SC1=S	11.2 µM [falling, partial curve, poor fit]	
O=C(Nc1ccc(Br)cc1)Nc1ccccc1F	8.91 µM [falling, partial curve]	
CCC1(c2ccccc2)NC(=O)N(CC(=O)Nc2cc(Cl)ccc2N2CCOCC2)C1=O (configuration not stated)	18.4 µM [falling, single point]	
CSc1nc(SCCN(C)C)c2c3c(sc2n1)COC(C)(C)C3	3.16 µM [rising, single point]	
NC(=O)c1ccsc1NC(=O)c1nc(-c2ccccc2)n(-c2ccccc2)n1	25.1 µM [falling, single point]	
Cc1cc(C(=O)OCC(=O)N2CCCC2)c2ccccc2n1	0.82 µM [rising, partial curve, poor fit]	
N#Cc1c(Nc2ccccc2C(F)(F)F)s[nH]c1=O	25.1 µM [falling, single point]	
O=C1O[C@@H](c2ccc(O)cc2)Cc2cccc(O)c21	18.4 µM [rising, partial curve]	
O=C(N/N=C/c1c[nH]c2ccccc12)C1CC1(c1ccccc1)c1ccccc1 (configuration not stated)	13 µM [falling, partial curve]	25.9 µM [rising, partial curve, poor fit]
Cc1cccnc1NC(=O)C1CCCN(S(=O)(=O)c2ccc3c(c2)oc(=O)n3C)C1 (configuration not stated)	32.6 µM [rising, single point]	
COc1cccc(N2CCN(C(=O)CCCCCn3c(=O)[nH]c4ccccc4c3=O)CC2)c1	35.5 µM [falling, single point]	
CN(C)S(=O)(=O)c1ccc(C(=O)Nc2ccc(F)cc2F)cc1	4.61 µM [rising, single point]	
Cc1ccc(/C=N/NC(=O)c2cc3ccccc3cc2O)o1	3.55 µM [falling, full curve]	
Cc1cccc(C(=O)N2CC(=O)Nc3ccc(F)cc3C2c2ccc(F)cc2)c1 (configuration not stated)	6.31 µM [rising, single point]	
CCCCOC(=O)Nc1sc2c(c1C(=O)OC)CCC2	6.31 µM [rising, full curve, poor fit]	
CCOc1ccc(N(CC)C(=O)c2nn(-c3ccc(OC)cc3)c(=O)c3c2c2ccccc2n3C)cc1	0.398 µM [rising, full curve, poor fit]	
